These are literature values, as cited in US20180214412A1, “IMMEDIATE RELEASE CANNABINOID FORMULATIONS” (CannTab Therapeutics Limited, priority 2017, published 2018).

The conditions of this data set: in vivo.

For `COC(=O)C1=C(C)NC(C)=C(C(=O)OC)C1c1ccccc1[N+](=O)[O-]` [Nifedipine, nifedipine], the biological half life is 2.5 h.
